The target in experiment [1] is Asf1-TAP (S. cerevisiae) (UniProt P32447). The experiment in a line: co-IP; TAP-tagged bait (Hat1, Hat2, Asf1 or Spt2) immunoprecipitated from lysates of yeast cells carrying plasmid-borne 12MYC-Hif1 constructs; blots with anti-MYC and anti-TAP; for Asf1 also a one step co-IP with TEV protease elution (Figure 3E).
For the next experiment, the target named is Hat1-TAP (S. cerevisiae) (UniProt Q12341). The description is as above.
The target of a further experiment is T1, Hat2-TAP (S. cerevisiae) (UniProt P39984).
T1 sequence: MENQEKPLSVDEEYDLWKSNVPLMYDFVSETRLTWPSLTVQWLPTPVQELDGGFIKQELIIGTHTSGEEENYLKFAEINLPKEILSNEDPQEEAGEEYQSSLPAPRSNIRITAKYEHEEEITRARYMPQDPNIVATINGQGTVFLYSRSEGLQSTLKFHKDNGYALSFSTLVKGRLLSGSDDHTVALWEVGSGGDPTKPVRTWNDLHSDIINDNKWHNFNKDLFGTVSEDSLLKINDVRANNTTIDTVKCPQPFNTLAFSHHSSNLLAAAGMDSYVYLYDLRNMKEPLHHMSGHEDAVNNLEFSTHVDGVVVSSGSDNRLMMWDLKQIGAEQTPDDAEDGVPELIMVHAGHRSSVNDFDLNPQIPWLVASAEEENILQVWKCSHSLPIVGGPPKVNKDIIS
The experiment is described as above.

Chains of the proteins cited; added tags and fusions are not shown.
UniProt P32447: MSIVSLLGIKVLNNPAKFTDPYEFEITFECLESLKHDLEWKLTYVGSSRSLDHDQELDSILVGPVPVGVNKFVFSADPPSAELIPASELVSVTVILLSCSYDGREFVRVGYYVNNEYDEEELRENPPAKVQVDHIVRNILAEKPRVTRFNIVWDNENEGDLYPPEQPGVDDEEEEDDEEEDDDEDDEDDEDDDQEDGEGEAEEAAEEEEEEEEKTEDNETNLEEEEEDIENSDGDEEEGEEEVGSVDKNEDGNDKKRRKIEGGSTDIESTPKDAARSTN
UniProt Q12341: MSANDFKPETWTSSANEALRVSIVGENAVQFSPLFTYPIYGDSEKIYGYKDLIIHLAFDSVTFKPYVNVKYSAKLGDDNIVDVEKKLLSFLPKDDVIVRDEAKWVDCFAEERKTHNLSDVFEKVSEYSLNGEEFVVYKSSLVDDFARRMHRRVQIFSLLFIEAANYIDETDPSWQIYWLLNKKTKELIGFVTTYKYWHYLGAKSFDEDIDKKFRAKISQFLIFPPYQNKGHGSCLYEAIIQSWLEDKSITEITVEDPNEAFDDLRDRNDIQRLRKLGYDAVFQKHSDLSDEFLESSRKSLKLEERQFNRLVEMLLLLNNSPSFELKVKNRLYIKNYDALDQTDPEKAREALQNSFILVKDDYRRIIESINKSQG
UniProt Q12373: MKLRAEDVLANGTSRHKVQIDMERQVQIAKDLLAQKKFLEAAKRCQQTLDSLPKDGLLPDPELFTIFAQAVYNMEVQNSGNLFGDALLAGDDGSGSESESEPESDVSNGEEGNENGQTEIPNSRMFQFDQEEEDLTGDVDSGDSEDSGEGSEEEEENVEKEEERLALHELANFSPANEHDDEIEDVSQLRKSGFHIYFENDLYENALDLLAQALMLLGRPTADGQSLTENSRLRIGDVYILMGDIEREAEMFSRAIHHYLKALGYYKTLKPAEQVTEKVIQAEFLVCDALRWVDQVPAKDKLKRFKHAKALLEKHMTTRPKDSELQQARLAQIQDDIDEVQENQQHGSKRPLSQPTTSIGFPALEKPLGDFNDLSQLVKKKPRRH

Experiment [2] deals with T2, Spt2-TAP (S. cerevisiae) (UniProt P06843).
T2 sequence: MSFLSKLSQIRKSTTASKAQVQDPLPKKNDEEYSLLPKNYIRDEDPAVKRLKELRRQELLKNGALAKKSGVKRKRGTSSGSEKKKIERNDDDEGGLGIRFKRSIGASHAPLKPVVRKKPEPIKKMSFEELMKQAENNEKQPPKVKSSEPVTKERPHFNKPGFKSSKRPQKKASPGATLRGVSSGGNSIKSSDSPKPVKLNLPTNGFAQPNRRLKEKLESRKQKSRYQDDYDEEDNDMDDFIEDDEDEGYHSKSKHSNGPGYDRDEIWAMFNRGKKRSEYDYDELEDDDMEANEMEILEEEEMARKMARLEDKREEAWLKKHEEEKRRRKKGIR
The description is as above.

Experiment [3] concerns the target T2, Spt2-TAP (S. cerevisiae). The experiment can be described thus: co-IP; Spt2-TAP (or Asf1-TAP as control) immunoprecipitated from cells expressing Hif1, Hat1 or Hat2 with C-terminal 13MYC from the native loci; blot with anti-MYC.
Experiment [4] deals with Asf1-TAP (S. cerevisiae) (UniProt P32447). The description is as above.

No constants are given. Whether binding was seen depends on the method and setting. In cells and extracts the contact can be indirect. Some entries that bind do so weakly or less than the wild type. For some assays here: Where a sequence is shown, tags or fusion partners need not be part of it.

With “12MYC-Hif1 full length (F.L.) (from UniProt Q12373 1-385)”, the binding result in the experiment with Asf1-TAP (S. cerevisiae) [1], with Hat1-TAP (S. cerevisiae), with Hat2-TAP (S. cerevisiae) and in the experiment with Spt2-TAP (S. cerevisiae) [2] was “binds” each time.
Turning to “Hat1 carrying C-terminal 13MYC epitope tag (from UniProt Q12341 1-374) (enzyme)”, the binding entry in the experiment with Spt2-TAP (S. cerevisiae) [3] is given as “binds”.
On to “Hif1 carrying C-terminal 13MYC epitope tag (from UniProt Q12373 1-385)”, for which the binding entry with Asf1-TAP (S. cerevisiae) [4] and with Spt2-TAP (S. cerevisiae) [3] was “binds” each time.

B1: Hat2 carrying C-terminal 13MYC epitope tag (protein, UniProt P39984 1-401)
chain: MENQEKPLSVDEEYDLWKSNVPLMYDFVSETRLTWPSLTVQWLPTPVQELDGGFIKQELIIGTHTSGEEENYLKFAEINLPKEILSNEDPQEEAGEEYQSSLPAPRSNIRITAKYEHEEEITRARYMPQDPNIVATINGQGTVFLYSRSEGLQSTLKFHKDNGYALSFSTLVKGRLLSGSDDHTVALWEVGSGGDPTKPVRTWNDLHSDIINDNKWHNFNKDLFGTVSEDSLLKINDVRANNTTIDTVKCPQPFNTLAFSHHSSNLLAAAGMDSYVYLYDLRNMKEPLHHMSGHEDAVNNLEFSTHVDGVVVSSGSDNRLMMWDLKQIGAEQTPDDAEDGVPELIMVHAGHRSSVNDFDLNPQIPWLVASAEEENILQVWKCSHSLPIVGGPPKVNKDIIS
As for B1, in the experiment with Spt2-TAP (S. cerevisiae) [3], the binding entry is listed as “binds”.

The values are drawn from PMC5982827.
